Results as given in patent US8329736B2, “Triazole compounds that modulate HSP90 activity” (Synta Pharmaceuticals, Corp., priority 2006, dated 2012).
Some entries share one result that the patent states for a list of compounds.

Test system: Her2
Assay: Her2 degradation IC50 (Example B, Method 2, Table 2)
Assay type: cell-based, human
Conditions: read-out: IC50 range of compounds of the invention for Her2 degradation

| SMILES | IC50 |
| --- | --- |
| CC(C)c1cc(-c2nnc(O)n2Cc2ccc(COCCN3CCOCC3)cc2)c(O)cc1O [Compound 93, 4-(5-hydroxy-4-(4-((2-morpholinoethoxy)methyl)benzyl)-4H-1,2,4-triazol-3-yl)-6-isopropylbenzene-1,3-diol] | < 500 nM |
| CC(C)c1cc(-c2nnc(O)n2Cc2ccc(COCc3ccccn3)cc2)c(O)cc1O [Compound 94, 4-(5-hydroxy-4-(4-((pyridin-2-ylmethoxy)methyl)benzyl)-4H-1,2,4-triazol-3-yl)-6-isopropylbenzene-1,3-diol] | < 500 nM |
| CC(C)c1cc(-c2nnc(O)n2Cc2ccc(COCCc3ccccn3)cc2)c(O)cc1O [Compound 96, 4-(5-hydroxy-4-(4-((2-(pyridin-2-yl)ethoxy)methyl)benzyl)-4H-1,2,4-triazol-3-yl)-6-isopropylbenzene-1,3-diol] | < 500 nM |
| COc1ccc(CCn2c(O)nnc2-c2cc(C(C)C)c(O)cc2O)cc1OC [Compound 97, 4-(4-(3,4-dimethoxyphenethyl)-5-hydroxy-4H-1,2,4-triazol-3-yl)-6-isopropylbenzene-1,3-diol] | > 1000 nM |
| COc1cc(CCn2c(O)nnc2-c2cc(C(C)C)c(O)cc2O)cc(OC)c1 [Compound 98, 4-(4-(3,5-dimethoxyphenethyl)-5-hydroxy-4H-1,2,4-triazol-3-yl)-6-isopropylbenzene-1,3-diol] | > 1000 nM |
| COc1cccc(CCn2c(O)nnc2-c2cc(C(C)C)c(O)cc2O)c1OC [Compound 99, 4-(4-(2,3-dimethoxyphenethyl)-5-hydroxy-4H-1,2,4-triazol-3-yl)-6-isopropylbenzene-1,3-diol] | > 1000 nM |
| CC(C)c1cc(-c2nnc(O)n2Cc2ccc(-c3ccc(N)nc3)cc2)c(O)cc1O [Compound 102, 4-(4-(4-(6-aminopyridin-3-yl)benzyl)-5-hydroxy-4H-1,2,4-triazol-3-yl)-6-isopropylbenzene-1,3-diol] | > 1000 nM |
| CC(C)c1cc(-c2nnc(O)n2Cc2ccc(CN3CCN(C)CC3)cc2)c(O)cc1O [Compound 108, 4-(5-hydroxy-4-(4-((4-methylpiperazin-1-yl)methyl)benzyl)-4H-1,2,4-triazol-3-yl)-6-isopropylbenzene-1,3-diol] | < 500 nM |
| COc1ccccc1CN(C)Cc1ccc(Cn2c(O)nnc2-c2cc(C(C)C)c(O)cc2O)cc1 [Compound 109, 4-(5-hydroxy-4-(4-(((2-methoxybenzyl)(methyl)amino)methyl)benzyl)-4H-1,2,4-triazol-3-yl)-6-isopropylbenzene-1,3-diol] | < 500 nM |
| CC(C)c1cc(-c2nnc(O)n2Cc2ccc(CN3CCSCC3)cc2)c(O)cc1O [Compound 114, 4-(5-hydroxy-4-(4-(thiomorpholinomethyl)benzyl)-4H-1,2,4-triazol-3-yl)-6-isopropylbenzene-1,3-diol] | < 500 nM |
| CC(C)c1cc(-c2nnc(O)n2Cc2ccc(CN3CC[C@H](O)C3)cc2)c(O)cc1O [Compound 118, (S)-4-(5-hydroxy-4-(4-((3-hydroxypyrrolidin-1-yl)methyl)benzyl)-4H-1,2,4-triazol-3-yl)-6-isopropylbenzene-1,3-diol] | < 500 nM |
| COC(=O)[C@@H]1CCCN1Cc1ccc(Cn2c(O)nnc2-c2cc(C(C)C)c(O)cc2O)cc1 [Compound 119, (S)-methyl 1-(4-((3-(2,4-dihydroxy-5-isopropylphenyl)-5-hydroxy-4H-1,2,4-triazol-4-yl)methyl)benzyl)pyrrolidine-2-carboxylate] | > 1000 nM |
| CC(C)c1cc(-c2nnc(O)n2Cc2ccc(CN3CCC[C@H]3C(N)=O)cc2)c(O)cc1O [Compound 120, (S)-1-(4-((3-(2,4-dihydroxy-5-isopropylphenyl)-5-hydroxy-4H-1,2,4-triazol-4-yl)methyl)benzyl)pyrrolidine-2-carboxamide] | < 500 nM |
| CC(C)c1cc(-c2nnc(O)n2Cc2ccc(CN3CCC(N4CCCC4)CC3)cc2)c(O)cc1O [Compound 121, 4-(5-hydroxy-4-(4-((4-(pyrrolidin-1-yl)piperidin-1-yl)methyl)benzyl)-4H-1,2,4-triazol-3-yl)-6-isopropylbenzene-1,3-diol] | > 1000 nM |
| CCOCCN(CCOCC)Cc1ccc(Cn2c(O)nnc2-c2cc(C(C)C)c(O)cc2O)cc1 [Compound 124, 4-(4-(4-((bis(2-ethoxyethyl)amino)methyl)benzyl)-5-hydroxy-4H-1,2,4-triazol-3-yl)-6-isopropylbenzene-1,3-diol] | > 1000 nM |
| CC(C)c1cc(-c2nnc(O)n2Cc2ccc(CN(CCO)CCO)cc2)c(O)cc1O [Compound 125, 4-(4-(4-((bis(2-hydroxyethyl)amino)methyl)benzyl)-5-hydroxy-4H-1,2,4-triazol-3-yl)-6-isopropylbenzene-1,3-diol] | > 1000 nM |
| COCCNCc1ccc(Cn2c(O)nnc2-c2cc(C(C)C)c(O)cc2O)cc1 [Compound 126, 4-(5-hydroxy-4-(4-((2-methoxyethylamino)methyl)benzyl)-4H-1,2,4-triazol-3-yl)-6-isopropylbenzene-1,3-diol] | < 500 nM |
| CC(C)c1cc(-c2nnc(O)n2Cc2ccc(CN(C)CCN(C)C)cc2)c(O)cc1O [Compound 128, 4-(4-(4-(((2-(dimethylamino)ethyl)(methyl)amino)methyl)benzyl)-5-hydroxy-4H-1,2,4-triazol-3-yl)-6-isopropylbenzene-1,3-diol] | < 500 nM |
| COc1ccc([C@@H](C)n2c(S)nnc2-c2cc(C(C)C)c(O)cc2O)cc1 [Compound 129, (R)-4-isopropyl-6-(5-mercapto-4-(1-(4-methoxyphenyl)ethyl)-4H-1,2,4-triazol-3-yl)benzene-1,3-diol] | > 1000 nM |
| COc1ccc([C@H](C)n2c(S)nnc2-c2cc(C(C)C)c(O)cc2O)cc1 [Compound 130, (S)-4-isopropyl-6-(5-mercapto-4-(1-(4-methoxyphenyl)ethyl)-4H-1,2,4-triazol-3-yl)benzene-1,3-diol] | > 1000 nM |
| COCCCNCc1ccc(Cn2c(O)nnc2-c2cc(C(C)C)c(O)cc2O)cc1 [Compound 131, 4-(5-hydroxy-4-(4-((3-methoxypropylamino)methyl)benzyl)-4H-1,2,4-triazol-3-yl)-6-isopropylbenzene-1,3-diol] | < 500 nM |
| C#CCNCc1ccc(Cn2c(O)nnc2-c2cc(C(C)C)c(O)cc2O)cc1 [Compound 132, 4-(5-hydroxy-4-(4-((prop-2-ynylamino)methyl)benzyl)-4H-1,2,4-triazol-3-yl)-6-isopropylbenzene-1,3-diol] | < 500 nM |
| CC(C)CNCc1ccc(Cn2c(O)nnc2-c2cc(C(C)C)c(O)cc2O)cc1 [Compound 136, 4-(5-hydroxy-4-(4-((isobutylamino)methyl)benzyl)-4H-1,2,4-triazol-3-yl)-6-isopropylbenzene-1,3-diol] | < 500 nM |

Further lines, results first:

| IC50 | SMILES |
| --- | --- |
| < 500 nM | CC(C)c1cc(-c2nnc(O)n2Cc2ccc(CN3CCCCC3)cc2)c(O)cc1O [Compound 95, 4-(5-hydroxy-4-(4-(piperidin-1-ylmethyl)benzyl)-4H-1,2,4-triazol-3-yl)-6-isopropylbenzene-1,3-diol] |
| < 500 nM | CC1CCN(Cc2ccc(Cn3c(O)nnc3-c3cc(C(C)C)c(O)cc3O)cc2)CC1 [Compound 101, 4-(5-hydroxy-4-(4-((4-methylpiperidin-1-yl)methyl)benzyl)-4H-1,2,4-triazol-3-yl)-6-isopropylbenzene-1,3-diol] |
| < 500 nM | CCN(C)Cc1ccc(Cn2c(O)nnc2-c2cc(C(C)C)c(O)cc2O)cc1 [Compound 103, 4-(4-(4-((ethyl(methyl)amino)methyl)benzyl)-5-hydroxy-4H-1,2,4-triazol-3-yl)-6-isopropylbenzene-1,3-diol] |
| < 500 nM | CCCCN(C)Cc1ccc(Cn2c(O)nnc2-c2cc(C(C)C)c(O)cc2O)cc1 [Compound 104, 4-(4-(4-((butyl(methyl)amino)methyl)benzyl)-5-hydroxy-4H-1,2,4-triazol-3-yl)-6-isopropylbenzene-1,3-diol] |
| > 1000 nM | CC(C)c1cc(-c2nnc(O)n2Cc2ccc(CN(C)C3CCCCC3)cc2)c(O)cc1O [Compound 106, 4-(4-(4-((cyclohexyl(methyl)amino)methyl)benzyl)-5-hydroxy-4H-1,2,4-triazol-3-yl)-6-isopropylbenzene-1,3-diol] |
| < 500 nM | COCCN(C)Cc1ccc(Cn2c(O)nnc2-c2cc(C(C)C)c(O)cc2O)cc1 [Compound 107, 4-(5-hydroxy-4-(4-(((2-methoxyethyl)(methyl)amino)methyl)benzyl)-4H-1,2,4-triazol-3-yl)-6-isopropylbenzene-1,3-diol] |
| < 500 nM | CC(C)c1cc(-c2nnc(O)n2Cc2ccc(CN(C)CCC#N)cc2)c(O)cc1O [Compound 113, 3-((4-((3-(2,4-dihydroxy-5-isopropylphenyl)-5-hydroxy-4H-1,2,4-triazol-4-yl)methyl)benzyl)(methyl)amino)propanenitrile] |
| > 1000 nM | CC(C)c1cc(-c2nnc(O)n2Cc2ccc(CN3CCC(N(C)C)C3)cc2)c(O)cc1O (centres unmarked) [Compound 116, 4-(4-(4-((3-(dimethylamino)pyrrolidin-1-yl)methyl)benzyl)-5-hydroxy-4H-1,2,4-triazol-3-yl)-6-isopropylbenzene-1,3-diol] |
| > 1000 nM | CC(C)c1cc(-c2nnc(O)n2Cc2ccc(CN3CCC4CCCCC4C3)cc2)c(O)cc1O (centres unmarked) [Compound 117, 4-(5-hydroxy-4-(4-((octahydroisoquinolin-2(1H)-yl)methyl)benzyl)-4H-1,2,4-triazol-3-yl)-6-isopropylbenzene-1,3-diol] |
| < 500 nM | C#CCN(C)Cc1ccc(Cn2c(O)nnc2-c2cc(C(C)C)c(O)cc2O)cc1 [Compound 122, 4-(5-hydroxy-4-(4-((methyl(prop-2-ynyl)amino)methyl)benzyl)-4H-1,2,4-triazol-3-yl)-6-isopropylbenzene-1,3-diol] |
| < 500 nM | CCCN(C)Cc1ccc(Cn2c(O)nnc2-c2cc(C(C)C)c(O)cc2O)cc1 [Compound 123, 4-(5-hydroxy-4-(4-((methyl(propyl)amino)methyl)benzyl)-4H-1,2,4-triazol-3-yl)-6-isopropylbenzene-1,3-diol] |
| < 500 nM | CC(C)c1cc(-c2nnc(O)n2Cc2ccc(CNC3CCCCC3)cc2)c(O)cc1O [Compound 127, 4-(4-(4-((cyclohexylamino)methyl)benzyl)-5-hydroxy-4H-1,2,4-triazol-3-yl)-6-isopropylbenzene-1,3-diol] |
